About 3,700 (7%) of roughly 53,000 sequences were called active.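 The calls were made as follows: active = gene knockdowns whose robust z-score for IL-1 alpha signal is at least 2 or at most -2, so actives lie on both sides; inactive = the rest.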 Some of the results follow.

The nature of the assay: Components of the Cytosolic LPS Sensing Pathway: Gene Identification via Genome-wide siRNA Screen.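 Also: robust z of the log signal after scaling to non-targeting control siRNA wells of the plate.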 The settings on record: RAW264.7 macrophages, IL-1a HTRF, actives lie on both sides, screened at 100 nM (by protocol), cells primed 5 h with Pam3CSK4 first. In outline:
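Supernatant IL-1a by HTRF from RAW264.7 cells primed with Pam3CSK4 (5 hours) and transfected with LipidA (24 hour) after 48h siRNA knockdown at 100 nM; cell viability checked with CellTiter-Glo.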
(In general: In TR-FRET formats the signal depends on donor and acceptor labels being close together.)
Take GCGGAACCUCAAGUUCAGATT against Taf3: the z-score is inactive: 0.239.

As to GCCCUUCUUAAAAUCCUGGTT against Itih3, the z-score is inactive: -1.27.

Regarding GGAAGUGAAAACAAGCAAUTT against Hadhb, the z-score was inactive: 0.0937.

As to GGAAGAAAUGCAUAAUGCATT against Mesd, the z-score was inactive: 0.236.

For GCCCUGGAGUUUAUGAGGUTT against Vwa5b2, the z-score is inactive: 0.309.

As for GGUCUCGAAUGUAUGGUGCTT against Bicc1, the z-score was inactive: 1.14.

As for GGGAAAUCCUUUCAAGGAGTT against Creb1, the z-score is inactive: -0.722.

Consider GGUGAAGGUGUCGUACUUUTT against Padi1, for which the z-score was inactive: -1.64.

With CCUGCUGGGAUUUAUUCAATT against Pmvk, the z-score is active: 2.52.

Take GGAUUCCAAACCAGAAAACTT against Ccdc181: the z-score is inactive: 0.707.

As to GGAAGAGGAGAAGAAAAAGTT against Syf2, the z-score was inactive: -1.25.

CCGAGAAAGUAUGCGCAACTT against Mlf1: the z-score is inactive: 0.131.

CCUCAAGCCCAAGUAAGACTT against Reep6: the z-score was inactive: -0.16.

In the case of GCUAUUGGGUAAUUUGCUUTT against Slco4a1, the z-score was inactive: 0.436.

For GGCUGUCAGUGUUUACAGGTT against Srd5a1, the z-score is inactive: -0.247.

GCUUAUGGAGUCCCUUGAUTT against Mipep: the z-score is inactive: -1.01.

Turning to GGUUACUCUAAAGUCAAGUTT against Nsun7, the z-score is inactive: 0.0659.

As for GGAGAUUACGAGAUGUCAATT against Sde2, the z-score was inactive: -0.0213.

Regarding GGAAUGUUGCCAUAGUGGATT against Mcrip2, the z-score is inactive: 1.28.

In the case of CGACUUGCUAGGUCAGUGGTT against Echdc3, the z-score was inactive: 0.727.

Take GGGAAGAAGCUAAAGAAGATT against Wipf1: the z-score is inactive: 1.44.

Consider CGGAAAACAUUGGACUCCCTT against Cdrt4, for which the z-score was inactive: -1.07.

For CCAUUGACACCUUAAAUAUTT against Cnot3, the z-score is inactive: 0.131.

Turning to GGCGUAAAAUUCAAACUCATT against Cr2, the z-score was inactive: 1.02.

GGACAGUCUACAUCUUUGUTT against Syne4: the z-score is inactive: -1.48.

GGACAUCCUCUUACAGUGGTT against Zg16: the z-score was inactive: 0.333.

On to GGUACUGUUUAUCAUUCAUTT against Hkdc1, for which the z-score was inactive: 1.05.

Take GGCUGUAUUUUGUAUUGUCTT against Coa8: the z-score is inactive: 1.21.

For GGCGUGACUUGGAAACAUGTT against Itga8, the z-score is inactive: -1.19.

With GGUGGACUCCUUGACAGAUTT against Krt72, the z-score is inactive: 0.705.

Take GGAGUAUUUUUUCACAGUUTT against Olfr338: the z-score was inactive: -0.999.

As to CCAUUUACCAUAAGUUCUUTT against Ccnq, the z-score was inactive: -0.373.

GCCGGAGCACAACAAUUCUTT against Kcnn2: the z-score was inactive: 0.648.

In the case of CCUACUACGAGAGGAAAACTT against Ak5, the z-score is inactive: -0.202.

For the sequence GGCUGGAUUGUAGAAUUAATT against Vpreb1, the z-score is inactive: 0.183.

Take GGAAAAGAUGAAAAGUGACTT against Myh11: the z-score was inactive: -1.32.

Turning to GGAAGACUCACGGCUCAAATT against Ccdc124, the z-score is inactive: -1.48.

GGGCUUCAGAAGAGAAAAUTT against Plbd1: the z-score is inactive: 0.458.

As to CCAAGUUUUUAUGCAGAUATT against Pip5k1b, the z-score was inactive: 1.6.

In the case of GGACAUUGAGUCAAAAAUCTT against Slc19a2, the z-score was inactive: -0.966.

For the sequence GGGAGAUAACAUAAGUCAUTT against Trim56, the z-score was inactive: 1.09.

For the sequence CCCAGUACAGCCUUGUGGUTT against Med25, the z-score is active: -2.02.

In the case of CCUAAAUACGAUUGGUGUGTT against Cdca4, the z-score was inactive: 1.06.

As to CCGUAUCCGGCAUUGGAUUTT against Mrps16, the z-score is inactive: 0.558.

Consider GCAGAAUCACCUAAUUGUGTT against Adora2b, for which the z-score was inactive: -0.0978.

As for GGUGAAAGGAGCAAAUGAUTT against Fyco1, the z-score is inactive: -0.332.

As for GGAACAUCAUUACAGCCAATT against Unc80, the z-score was inactive: -0.113.

GGACGGUGACCUGUAUGAUTT against Cpxm1: the z-score was active: -2.4.

GGAUUUUGCACUAUAACAATT against Zmat3: the z-score was active: 3.83.

Turning to GAAUGUGCAGAUAGCUGGCTT against Sdsl, the z-score is inactive: -0.54.

Turning to GGAAUCUCAAUGAAAGAUGTT against Nwd2, the z-score was inactive: -0.379.

On to GGUAGUUCUAUAGAUACUGTT against Rftn1, for which the z-score was inactive: 0.0743.

Turning to GGGACACUACAUGAAGGCCTT against Tnfrsf25, the z-score was inactive: -0.472.

With CCUCAUGUUAAUCUGGAGATT against Gabre, the z-score is inactive: 0.0167.

In the case of GCAAACAAUGCAACAAGCATT against Adam1b, the z-score was inactive: 0.689.

Consider GGAAGAUCUGAAGUCAAUCTT against Mvk, for which the z-score was inactive: -1.08.

On to AACCAUUCAGGAGAAAGCCTT against Lce1a1, for which the z-score was active: -3.05.

As for GGGUAUUCUUUCAAUCAUATT against Fgf12, the z-score is inactive: -1.82.

For GGGCAAAACCAUCUUCCGGTT against Scn5a, the z-score is inactive: 0.344.

For GGUCAAAGUCUAGGAGUUUTT against Spp1, the z-score was active: 2.56.

For the sequence GCUGAAUCACUACCAGUCATT against Zfp462, the z-score was inactive: 1.27.

In the case of GGGCGGAAAACUAGACCUATT against Btbd17, the z-score was inactive: 0.494.

GGCUUCUAUUGCCAUAAUGTT against Olfr380: the z-score was inactive: 0.568.

Turning to GCUUCAAGAGACAAAACUCTT against Wsb1, the z-score was inactive: -0.0615.

Regarding CCAGUGCGUUUGAGAUUGATT against Aanat, the z-score was inactive: 0.575.

For the sequence GGUGCACAAUUGACAACCGTT against Ntm, the z-score is inactive: -0.258.

For GGACAAGAAGAUAUUACUUTT against Ocln, the z-score was inactive: 1.13.

As for GCUUGUCAAGUUUGUGAGCTT against Sec14l4, the z-score is inactive: -0.0652.

For the sequence GGCCCGGAAACCUUUGCAUTT against Efna4, the z-score was inactive: 0.213.

Consider GGAGAGAGAUUUUCAAUAUTT against Gtdc1, for which the z-score was inactive: -0.41.

As to GCUUCCUAAAGCGACUAAUTT against Dnah14, the z-score is inactive: -0.0321.

On to GGCUCUGGUGAACUACAUGTT against Olfr1378, for which the z-score was inactive: 0.411.

On to GGAGAUCAUGUUUAAGAAUTT against Nicn1, for which the z-score is inactive: -0.802.

As for GGAAUGACCAAGAAACAACTT against Recql4, the z-score is inactive: 0.00745.

In the case of GCCUGUCUCCUCAAUGCUUTT against Gm9903, the z-score was inactive: -0.319.

For the sequence GGUAAAUGAUAUUCAUGGUTT against Pdlim2, the z-score was inactive: -0.516.

Consider GGAAAUCUUACAGACUGAGTT against Grid2, for which the z-score was inactive: 0.974.

Turning to GGCUCAGAGAACUUCUACATT against Eif6, the z-score is inactive: -1.19.

In the case of GCACGGUCAAGUUUUGAUUTT against Prkaa2, the z-score is inactive: -0.792.

Regarding GCCAUGACCAUCUUUCUCUTT against Olfr1413, the z-score is active: -3.03.

In the case of UACUCUGGUAACACCCACUTT against Olfr98, the z-score was inactive: -1.23.

In the case of CCAACUUUCUCUUAGGAAATT against Igfl3, the z-score is inactive: -0.487.

Regarding CCCAAAUAUACCUGUGACATT against Txndc8, the z-score is inactive: 0.412.

For the sequence GGUGGAAUUCAUCAAGAACTT against Kcnc1, the z-score was inactive: 0.0468.

Consider GGACCUAAAGAUUGUCUUCTT against Stam, for which the z-score was inactive: -0.79.

As for CCGAGAACCUUAAACUCCCTT against Sowahc, the z-score was inactive: 0.161.

GGCAAGGUGUUUUAUAACATT against Flt4: the z-score was inactive: 1.25.

For the sequence GGAGUUCGUCAACAAGAAGTT against Dll1, the z-score is inactive: -0.0899.

Consider GGUGGACUUCAUGUAGAUUTT against Eif3m, for which the z-score was inactive: -1.07.

As to GGGUAGAAAUGAGAAGUUCTT against Tcf20, the z-score is inactive: 0.766.

Consider CCAUCGUCUAUCAUUUAGUTT against Six4, for which the z-score was inactive: 0.691.

Consider GGGUAUAGAAUGAUUAUGGTT against Ly6g2, for which the z-score is active: -2.39.

On to GGCUUUCAAGACACUUCUUTT against Ccl6, for which the z-score was inactive: -1.6.

Turning to GGCAUCAAUAACUCAACAUTT against Slc5a8, the z-score is inactive: -0.256.

In the case of GGCACGAAGUCCGAGAAAUTT against Hs2st1, the z-score is inactive: -0.278.

For GGGUGGAAGAAAGGUAAAGTT against Cd68, the z-score is inactive: -0.64.

Turning to CCCACGAGCAAUAAAAUUGTT against Lmbr1l, the z-score is inactive: -1.31.

For the sequence CGUGGAAAGAAAAUUAUCATT against Psmd11, the z-score is active: -2.21.

With GCCAAGUGGUGACAUCAACTT against Ralgds, the z-score is active: 2.7.

As to GGCAACUUCAUGGGUUUCATT against Tyr, the z-score is inactive: 1.73.

Turning to CCAACCUAAACAAUGCAUUTT against Actn4, the z-score is inactive: -0.431.

Regarding GGAUUUGAUUCCGCCAACGTT against Pon2, the z-score was active: -2.03.

Turning to GGUGUGACAUGGUUUGAUATT against Lyrm2, the z-score was inactive: -0.00504.

Turning to GGUUCUAAUUAGAGAAACATT against Tcte1, the z-score was inactive: 0.461.

As for GCCACGUAUAACCACGACATT against Sun5, the z-score is inactive: 0.246.

For the sequence CCGUAUGGACUGGUUUACUTT against Chrdl1, the z-score is inactive: 0.0556.

Regarding GGACAGAGCGUGCACUAGATT against Slc66a1, the z-score is inactive: -1.32.

As to GCUGUCACAGUUUGUGAUUTT against Gak, the z-score is inactive: -0.108.
